Source: article PMC7670052
No signal at the amounts used counts as a negative. Where a protein sequence is shown, tags need not be part of it. For part of these data: The exact form of at least one protein or probe is not confirmed.

Legend:
Test in all cases: EMSA
ScyR1 = test system: T1, ScyR1; settings: EMSA as in Li C. et al., 2019 (buffer, pH and temperature not given); 10 ng DNA probe per lane; one lane with 100-fold poly(dI-dC); recombinant protein; residues 1-233; protein details: His6 (C-terminal, pET-23b NdeI/XhoI); probe letters rebuilt from the primers and the genome
T1 sequence (looked up): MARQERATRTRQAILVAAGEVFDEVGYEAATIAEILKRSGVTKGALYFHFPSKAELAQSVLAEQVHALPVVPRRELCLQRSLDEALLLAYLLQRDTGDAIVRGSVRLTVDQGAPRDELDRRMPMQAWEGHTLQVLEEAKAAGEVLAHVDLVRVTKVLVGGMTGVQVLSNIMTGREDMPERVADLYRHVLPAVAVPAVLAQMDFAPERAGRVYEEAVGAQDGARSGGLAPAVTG

ScyR2 = test system: T2, ScyR2; settings: EMSA as in Li C. et al., 2019 (buffer, pH and temperature not given); 10 ng DNA probe per lane; one lane with 100-fold poly(dI-dC); recombinant protein; protein details: GST (N-terminal, pGEX-4T-1 EcoRI/XhoI); probe letters rebuilt from the primers and the genome
T2 sequence (looked up, limits assumed): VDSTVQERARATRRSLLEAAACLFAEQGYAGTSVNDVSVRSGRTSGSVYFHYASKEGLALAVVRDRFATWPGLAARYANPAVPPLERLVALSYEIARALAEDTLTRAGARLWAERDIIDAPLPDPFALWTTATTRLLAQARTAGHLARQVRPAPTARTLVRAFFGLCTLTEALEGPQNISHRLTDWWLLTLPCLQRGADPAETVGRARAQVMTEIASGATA

ScyR3 = biological target: T3, ScyR3 (UniProt A0A0C5FQ08); settings: EMSA as in Li C. et al., 2019 (buffer, pH and temperature not given); 10 ng DNA probe per lane; one lane with 100-fold poly(dI-dC); recombinant protein; residues 1-210; protein details: His6 (C-terminal, pET-23b NdeI/XhoI); probe letters rebuilt from the primers and the genome
T3 sequence (looked up): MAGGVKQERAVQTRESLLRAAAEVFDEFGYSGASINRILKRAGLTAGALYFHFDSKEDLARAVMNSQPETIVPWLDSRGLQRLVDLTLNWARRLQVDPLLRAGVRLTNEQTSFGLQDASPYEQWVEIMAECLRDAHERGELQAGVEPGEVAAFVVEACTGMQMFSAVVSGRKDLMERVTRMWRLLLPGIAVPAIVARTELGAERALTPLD

Measured: binding result

CGGTCCTGTCGTCCGGGGTACTGGACCGCCAGGACCTCGATGCCGGGGGCGAGGGACCGGGCCAGGCGCAGATAGGCGCTGGCGGACCCGCCCGCGTGCGGGAAGCACATGAGCCGCGTCCGGGCCGCGGGAGCCGGCTGGAACCGCCGGAGCCAGAGGGATTCGGTCTCGCAAAGGTCGGGCATCGCTCGTCCTCTCCTTAAGTGCGATTATCGCAACACGCGTGTCCGCGTGACCTCGCGAATGGCTCGCCGTCCCGCGGAGGCTGCCCAACCTCCCGGCCGCCCATTCCGAGGACTCTCCACACGCTCGAAAGGGTGAGCGAAATAACGTAAATTCACGGGTTCGTATCAACTCGGCCACCACGCTTGCTCATTGGCTCATTCTCGTATCGGGGTGCGCGTGTGGCGGCTTCGGGAGAGGGGCAGTATCTCGTCGACTTGTGGGCTTTCCTGTTGGTACGAATCCGTAAAGCCCCCGGTCTTCGGGGGAGGGAGTCAGAGGGAGATTATGCGGGGCGTTTCCCCTTCGGTGTCCGTGCGGGAGCCGCAAGGGCTCACGTTCCTCGGCCTGGGCAGGCAGTCCCATGCCGTGAGAACGGCGCTCGAGGCGTGCGCCGCCGGCCGGGTGCGGGTGCTGGTCGTCGAAGGAGGACTCGGCTGCGGGAAAAGCGCGTTCCTGGGGGAGGCGCTCAAGCACGCGGCGGCATC (double strand) [PnemR (nemR promoter)]
no binding: all assays above

CGACGGACCAGTCGAGGTACGGGGCGAGCGCGTCGGCGCAGGCGCGCACACTCTCGCGGAACACCGGGGAGGTGTCCCACAGTTCCGCACCCATCCCCGGCCACTGAGACCCCTGTCCGGGGAAGACGAAGACCACTGCGTCCGCGGACCCGTCGGACGACCCTTCCTCGCCGTGCGCGTGTGTCTCGTGCACTTGTCGTCTCCTCACCGCTCGGCAGGGATGGGCGGCCGCATCGCAGGGCGAAAGTCGCCGCAGGTATTTCGAGGCAGGGGACAGCCCGGCATGGAGAGGACTTTCGCCGCCGGCCGCGCGCCGGAGTCGTGTTTCAAAATAGTGATCGCCCGACGGTCCTGGTACCCCCTATCCACCCCAGGGGTATTCGGCCGATCTTCTTGCTCCCCCTACGAGTTCCGGGTGCGGAAATCGATCGCATTCCCGCCCTCCCGTGTGTCGCCTGGACTCTGGCACAGTAATCGGTGAGGTCGCGACCTCACGCGTGGCCGGGGTGCGGATCTGGCCTCGGGTCCGACCCCATGCATCAAGAGGAAAAGTAAGATAATCGGCAGAAGGGGATTCGGGATGCCGGAATTGAACGACAGGACGGCCTTGGTCACGGGTGCCTCGCGCGGCATCGGAAAAGCCATCGCCCAGCGACTCGCCGCCGAGGGCGTCCGGGTCGCCGTGCACTACGGAACGCAGGAAA (double strand) [PnemA1-1 (nemA1-1/A1-2/A2 promoter)]
no binding: all assays above

GCGGTGGGCGAGAAGGAGCTGCGCGGGCTCTTGACGTCGATCCCGATCGGCCGGCTGCGGGAGGCGGGGCTGATCGACCGCCTCCTGGCGCTCGCCGCTGCGGCGCCAGACTCCGCCGATCAGACGGCGGAGCAGCCCTCCCGGTCCGTGTCGGTCGAGGACATCGACGCCATGGACGTCGACAGCCTCATCGGCCTGGCCCACGACACCGGCACCGACTCCGGTCACGCCCCCTGCAGGGCTGACCTCCACTTCACGGATGCGAGAGACGACATGACGCAGATTCCGCCAACCGGTCACGACGCCGTGGCAGCCGGGCCCGCCCCCGGCGCCGCGGAACAGAAACGAGGACGGAAACGGAAACCAGGACGGGAGCCCCGGCCAGAGCATCGACGGGAACAGGAACGAGGGCAGGGAGCAGGGCTGGGGCAGGGGCAGGAACGCGCGCGGCCCGCGGACGGTGGTCGGCGGCTCGTGCTTGGCTGGGCGGCGCTCGGCGCGGTGTGCCTGGCCCTGCAGGCGTACGTGCTCGTCCGCTGGGCGGCCGACGGTGGGTATCGCCTGGTGGACGTACCCGGTGAGGGCGGCGCGGAGCGTGGCCACCGAAGGGTCCTCGACATCGTGTTCCCGGCGCTGTCGGCGGCAGGTGTCGTGGGGCTGGCGCTGTGGCTCTACCGCAGGTGC (double strand) [PnemC (nemC promoter)]
no binding: all assays above

CCAGTTCGGCGGTCGCCTCCGCGCCGGGCCCGTCCCGGTCCACACACACCAGCCGCGCCCCGGCGGCACCGAACCGGCAGGCCGTCGCCCGCCCGATGCCGCTCCCCGCCCCCGTGACCAGGACCAGCCGGTCCTCGAAACGCTTCGCGTAACGATCCATGCCTGCGGCTCTTCCCCCTATTTGAACGGGTATTCGCTTCACGTAGCCAGTCTGGGGTGTATAGGGGGTATTCGGGTTGACTTGCCCACCCTAATCTGGCGGGGTTCCGTGCCACCTCCAGCGCAGCGGCGAGGAGACCCCGTCATGGCCAACGAGGAAATGCTCCGCGAGTACCTCAAGCGCGCGACCGCCGATCTGCTGCGGGTCCGGCGCCGGCTGGAGCAGGTCGAGTCGGGCAGGCAGGAGCCGGTCGCGATCGTGGGCATGGCGTGCCGGTTCCCGGGAGGTGTGCGATCGCCCGAGGACCTGTGGGAGCTGGTCG (double strand) [PnemA4 (nemA4/A3/E/D promoter)]
no binding: all assays above
